Data taken from US20110070597A1, “Thin-Film Passive Samplers for Detection of Hydrophobic Organic Contaminants and Estrogenicity in Various Environments” (UNIVERSITY OF CONNECTICUT, priority 2009, published 2011).

Key:
[1] = Deployment of POG in coastal waters, Thames River Estuary (Experimental 5); settings: 12 days in situ
[2] = type: physicochemical; settings: calculated at 1, 2, or 6 hrs, artificial seawater 31 ppt, 20° C.
From the text: The polymer coated glass samplers (POG) and the organic rapid equilibrating (ORE) samplers, 10 and 20, both consisting of a thin film (on the order of ˜1-2 μm) of EVA, were calibrated by experimental determination of EVA-Water partition coefficients and sampling rates. The ORE is comprised of a 1.4 μm EVA coating on a 5.1×7.6 cm titanium plate, while the POG utilizes a thin-film of EVA on a glass fiber filter.
A closed system experiment was used to calibrate the POG and ORE devices. Sampling rates and equilibration times were determined for fourteen PBDE congeners. EVA-Water partitioning coefficients (KEVA-W) were experimentally determined for 5 BDE congeners. A Log KEVA-W−Log KOW (Octanol-Water partitioning coefficient) plot was constructed and used to define Log KEVA-W partitioning coefficients for the 14 BDE congeners examined. Values ranged from 6.39 to 10.6. The experimental design was successful in parameterizing the desired constants. In sum, both samplers were successfully calibrated.
A dichloromethane rinsed 20 gallon fish tank was employed for the tank deployment experimental. Three POGs and three OREs were suspended from a stainless steel frame proximate the top of the tank.
Once dry, the tank was filled with artificial seawater comprising sodium chloride, sodium bicarbonate, magnesium sulfate, and high purity Milli-Q water. A handheld multiparameter instrument (YSI-556) was used to confirm salinity (31 parts per thousand), dissolved oxygen (0.19 mM), and temperature (20° C.) prior to starting the experiment. The tank was fit with a plexiglass lid sealed with polytetrafluoroethylene (PTFE; i.e., Teflon®) and duct tape.
The tank was spiked with 0.2 mL of the PBDE Predominant Congener Mixture in n-nonane from Cambridge Isotope laboratories and allowed to equilibrate for 48 hours. Samplers were removed from refrigeration and allowed to equilibrate to room temperature. 400 mL of water was taken to establish the initial concentration. Seven sets of three samplers were added to the tank. The tank was secured with a lid, PTFE and duct tape, as described above. Four hundred milliliter aliquots of tank water and one sampler set were removed at the following time intervals: 1 hr, 2 hrs, 6 hrs, 12 hrs, 3 days, 12 days, and 32 days. The tank was open to the air in the fume hood for less than 4 minutes during each sampling period. After removal, each sampler set was wrapped in pre-cleaned aluminum foil and placed frozen in an airtight bag at −20° C. until extraction and analysis. Water-side 400 mL aliquots were frozen at −20° C. until extraction and analysis.
The POGs and OREs were extracted for analysis of PBDE concentration.
Extracts were analyzed for BDE congeners 17, 28, 47, 66, 71, 85, 99, 100, 138, 153, 154, 183, 190, and 209 by gas chromatography-mass spectrometry (GC/MS). Masses 79 (PBDEs) and 414 (Mirex) were used for quantification with Masses 81 (PBDEs), 487, 486 (DecaBDE), and 412 (Mirex) acting as confirmation ions. Extracts were identified and quantified by comparison with known concentrations of prepared standard solutions.
Sampling rates were calculated experimentally using Equation 2. The sampling rates varied between sampler types. The differences in sampling rates were likely due to variations in the thickness and heterogeneity versus homogeneity of the thin film coating on the respective plates. Sampling rates (RS(s)) were calculated at 1, 2, or 6 hrs depending upon the shape of the uptake curve.

[3] = Detection of PBDEs by POGs in bottom waters, Thames River Estuary (Experimental 6); settings: 14 days in situ

SMILES	blank-corrected water concentration ([1]; Station 1, POG) [pg/L]	blank-corrected water concentration ([1]; Station 2, POG) [pg/L]	blank-corrected water concentration ([1]; Station 3, POG) [pg/L]	Rs (sampling rate) ORE [2] [Ld^−1]	Rs (sampling rate) POG [2] [Ld^−1]	blank corrected water concentration ([3]; Station 1, POG) [pg/L]	blank corrected water concentration ([3]; Station 2, POG) [pg/L]	blank corrected water concentration ([3]; Station 3, POG) [pg/L]
CCC(CC)Nc1c([N+](=O)[O-])cc(C)c(C)c1[N+](=O)[O-] [Pendimethalin]	38	33	34	–	–	–	–	–
Brc1ccc(Oc2c(Br)c(Br)c(Br)c(Br)c2Br)cc1Br [BDE 190]	–	–	–	10.4	11.4	–	–	–
CCCN(CCC)c1c([N+](=O)[O-])cc(C(F)(F)F)cc1[N+](=O)[O-] [Trifluralin]	1.4	0.5	0.8	–	–	–	–	–
Brc1c(Br)c(Br)c(Oc2c(Br)c(Br)c(Br)c(Br)c2Br)c(Br)c1Br [BDE 209]	–	–	–	7.5	6.7	28.16	30.89	1.45
Brc1cc(Br)c(Oc2c(Br)cc(Br)c(Br)c2Br)cc1Br [BDE 183]	–	–	–	8.6	7.5	1.59	1.35	0.45
Brc1ccc(Oc2ccc(Br)cc2Br)cc1 [BDE 28]	0.56	–	0.56	7.6	4.8	0.73	1.57	–
Brc1ccc(Oc2c(Br)cc(Br)cc2Br)c(Br)c1 [BDE 100]	17	–	9.7	4.2	4.5	2.62	3.68	1.20
Brc1ccc(Oc2ccc(Br)c(Br)c2Br)c(Br)c1 [BDE 85]	0.76	–	0.49	8.8	8.2	0.33	2.25	0.35
Brc1cc(Br)c(Oc2ccc(Br)c(Br)c2Br)cc1Br [BDE 138]	–	–	–	4.1	5.1	–	–	–
Brc1cc(Br)c(Oc2cc(Br)c(Br)cc2Br)cc1Br [BDE 153]	0.40	–	0.39	2.8	6.5	2.03	0.96	0.37
Brc1ccc(Oc2c(Br)cccc2Br)cc1Br [BDE 71]	0.55	–	0.14	6.1	7.6	–	0.40	0.13
Brc1cc(Br)c(Oc2cc(Br)c(Br)cc2Br)c(Br)c1 [BDE 154]	0.94	–	0.31	2.6	5.7	0.14	1.74	0.07
Brc1ccc(Oc2ccc(Br)cc2Br)c(Br)c1 [BDE 47]	18	–	7.7	4.9	9.9	–	1.49	–
Brc1ccc(Oc2ccccc2Br)c(Br)c1 [BDE 17]	1.2	–	0.23	6.4	3.2	–	–	0.60
Brc1ccc(Oc2cc(Br)c(Br)cc2Br)c(Br)c1 [BDE 99]	39	–	23	4.0	6.5	–	7.86	–
Brc1ccc(Oc2ccc(Br)c(Br)c2)c(Br)c1 [BDE 66]	0.38	–	0.30	5.6	6.9	0.58	0.67	0.30
CCNc1nc(Cl)nc(NC(C)C)n1 [Atrazine]	47000	74000	72000	–	–	–	–	–
N#Cc1c(Cl)c(Cl)c(Cl)c(C#N)c1Cl [Chlorothalonil]	6800	6400	6300	–	–	–	–	–
O=S1OC[C@@H]2[C@H](CO1)[C@@]1(Cl)C(Cl)=C(Cl)[C@]2(Cl)C1(Cl)Cl (stereo partly shown) [A-Endosulfan]	120	63	64	–	–	–	–	–
